Data from publication PMC4145799.

Chains of the proteins cited; added tags and fusions are not shown. Lines headed by an entry give the natural chain unless they say otherwise; changes in a name come on top.
UniProt P0A9H3: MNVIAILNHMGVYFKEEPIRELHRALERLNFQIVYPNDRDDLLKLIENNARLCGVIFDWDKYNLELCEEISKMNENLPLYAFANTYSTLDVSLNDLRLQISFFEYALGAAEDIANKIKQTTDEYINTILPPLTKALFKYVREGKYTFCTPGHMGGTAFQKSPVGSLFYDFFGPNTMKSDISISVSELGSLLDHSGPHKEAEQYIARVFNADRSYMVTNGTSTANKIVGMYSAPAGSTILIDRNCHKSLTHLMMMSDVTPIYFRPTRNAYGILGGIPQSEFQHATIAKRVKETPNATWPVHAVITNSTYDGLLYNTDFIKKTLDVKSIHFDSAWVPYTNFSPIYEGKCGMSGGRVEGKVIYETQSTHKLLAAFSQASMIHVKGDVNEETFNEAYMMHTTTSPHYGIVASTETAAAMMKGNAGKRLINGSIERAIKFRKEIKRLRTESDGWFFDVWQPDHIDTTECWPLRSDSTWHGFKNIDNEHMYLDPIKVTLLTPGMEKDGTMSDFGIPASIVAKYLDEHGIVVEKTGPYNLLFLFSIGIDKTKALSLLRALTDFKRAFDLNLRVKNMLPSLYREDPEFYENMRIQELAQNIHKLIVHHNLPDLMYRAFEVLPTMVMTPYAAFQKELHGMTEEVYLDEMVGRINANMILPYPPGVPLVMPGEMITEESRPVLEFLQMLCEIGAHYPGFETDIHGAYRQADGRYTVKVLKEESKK
UniProt P31473: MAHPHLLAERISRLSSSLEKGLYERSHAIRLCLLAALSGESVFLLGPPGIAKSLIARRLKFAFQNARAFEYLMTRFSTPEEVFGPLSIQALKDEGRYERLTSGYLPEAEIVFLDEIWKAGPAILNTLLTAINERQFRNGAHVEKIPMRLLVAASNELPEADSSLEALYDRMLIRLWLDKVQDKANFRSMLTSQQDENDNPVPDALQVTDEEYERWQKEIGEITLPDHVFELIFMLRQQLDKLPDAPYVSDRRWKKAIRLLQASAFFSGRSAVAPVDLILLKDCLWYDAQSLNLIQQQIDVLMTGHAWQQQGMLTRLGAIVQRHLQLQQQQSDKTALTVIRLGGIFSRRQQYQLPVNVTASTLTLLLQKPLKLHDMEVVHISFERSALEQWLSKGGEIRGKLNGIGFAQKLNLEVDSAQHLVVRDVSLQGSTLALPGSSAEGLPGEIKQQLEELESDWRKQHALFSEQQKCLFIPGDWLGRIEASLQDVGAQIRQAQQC

Molecular target: inducible lysine decarboxylase LdcI (Escherichia coli) (UniProt P0A9H3)
Test: cryo-EM structure; LdcI-LARA complex, 7.5 Å; 7.3 µM LdcI with 73 µM LARA (1:10), 15 min at room temperature, 50 mM Mes pH 6.5, 100 mM NaCl, 0.2 mM PLP, 1 mM DTT, 0.01% glutaraldehyde; D5 symmetry imposed; both purified

LARA domain of RavA (LdcI associating domain of RavA) (from UniProt P31473) (domain or fragment)
binding: binds

These are yes or no findings as the source states them, for the method shown. A result given as binding can be weak or reduced; the word gives no strength.
